The values that follow are results of earlier work, collected in patent US20260217691A1, “FOXM1 INHIBITORS AND THEIR USE IN TREATING CANCERS” (THE BOARD OF TRUSTEES OF THE UNIVERSITY OF ILLINOIS, priority 2022, published 2026).

In the data set the test system is FOXM1 pathway. The conditions noted are these: cited from earlier work.

Consider `O=C(Oc1cccc(/C=N/Nc2nc(Nc3ccccc3)nc(N3CCOCC3)n2)c1)c1ccco1` [STL427944], for which the “other important regulatory pathways (RNA-seq)” value was “no significant changes”.
